From the supplement of paper PMC4604168 (melanoma cell lines)
The list shows a part of the results. Single values are uncertain, as repeats are few or missing.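 Imaging used 1,536-well plates; nuclei positive for cleaved PARP by antibody were divided by total DNA-stained nuclei to yield the apoptosis fraction. Doses for screening kept most cells viable, and cell lines differ markedly in resting and induced cleaved-PARP levels.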

Experiments:
Test in all cases: cleaved PARP positive nuclei fraction relative to DMSO control; melanoma cells; higher = more apoptosis
Settings in all cases: library dose: low library concentration; 72 h
COLO792 = tested on: COLO792
COLO800 = tested on: COLO800
COLO829 = tested on: COLO829
G361 = tested on: G361
IPC-298 = tested on: IPC-298
IST-MEL1 = tested on: IST-MEL1
LB2518-MEL = tested on: LB2518-MEL
LOXIMVI = tested on: LOXIMVI
MEL-HO = tested on: MEL-HO
MZ2-MEL = tested on: MZ2-MEL
MeWo = tested on: MeWo
RPMI7951 = tested on: RPMI7951
RVH-421 = tested on: RVH-421
SkMel28 = tested on: SkMel28
SkMel2 = tested on: SkMel2
SkMel30 = tested on: SkMel30
SkMel5 = tested on: SkMel5
UACC257 = tested on: UACC257
UACC62 = tested on: UACC62

Structure (SMILES)	cleaved PARP positive nuclei fraction (COLO792)	cleaved PARP positive nuclei fraction (COLO800)	cleaved PARP positive nuclei fraction (COLO829)	cleaved PARP positive nuclei fraction (G361)	cleaved PARP positive nuclei fraction (IPC-298)	cleaved PARP positive nuclei fraction (IST-MEL1)	cleaved PARP positive nuclei fraction (LB2518-MEL)	cleaved PARP positive nuclei fraction (LOXIMVI)	cleaved PARP positive nuclei fraction (MEL-HO)	cleaved PARP positive nuclei fraction (MZ2-MEL)	cleaved PARP positive nuclei fraction (MeWo)	cleaved PARP positive nuclei fraction (RPMI7951)	cleaved PARP positive nuclei fraction (RVH-421)	cleaved PARP positive nuclei fraction (SkMel28)	cleaved PARP positive nuclei fraction (SkMel2)	cleaved PARP positive nuclei fraction (SkMel30)	cleaved PARP positive nuclei fraction (SkMel5)	cleaved PARP positive nuclei fraction (UACC257)	cleaved PARP positive nuclei fraction (UACC62)
O=C(/C=C/c1cccnc1)NCCCCC1CCN(C(=O)c2ccccc2)CC1 + Cn1cncc1[C@@](N)(c1ccc(Cl)cc1)c1ccc2c(c1)c(-c1cccc(Cl)c1)cc(=O)n2C [tipifarnib] (first compound 0.01 µM, partner dose 0.01 µM)	884%	236%	236%	4520%	49.8%	73.1%	145%	96.8%	304%	506%	39.1%	252%	147%	96%	805%	72.3%	153%	111%	157%
CCCCCCCCCCCCCCCCCCOP(=O)([O-])OC1CC[N+](C)(C)CC1 [Perifosine] + Cc1ccc(NC(=O)c2cccc(N(C)C)c2)cc1NC(=O)c1ccc(O)cc1 [ZM336372] (first compound 0.4 µM, partner dose 2 µM)	160%	49.5%	61.5%	179%	27.3%	199%	134%	124%	74.5%	233%	117%	66.3%	48%	138%	95.1%	82.8%	116%	110%	34.4%
CC[C@]1(O)C[C@H]2CN(CCc3c([nH]c4ccccc34)[C@@](C(=O)OC)(c3cc4c(cc3OC)N(C=O)[C@H]3[C@@](O)(C(=O)OC)[C@H](OC(C)=O)[C@]5(CC)C=CCN6CC[C@]43[C@@H]65)C2)C1 [vincristine] + COc1cc2c(Oc3ccc4[nH]c(C)cc4c3F)ncnc2cc1OCCCN1CCCC1 [cediranib] (first compound 0.0001 µM, partner dose 0.4 µM)	129%	98.1%	80.1%	137%	28.4%	87.4%	92.4%	37.3%	62.4%	98.6%	79.8%	153%	73%	137%	32.9%	147%	71.5%	85.7%	190%
Cc1cn(-c2cc(NC(=O)c3ccc(C)c(Nc4nccc(-c5cccnc5)n4)c3)cc(C(F)(F)F)c2)cn1 [nilotinib] + CC1(C)NC(=O)N(c2ccc([N+](=O)[O-])c(C(F)(F)F)c2)C1=O [nilutamide] (first compound 0.2 µM, partner dose 1 µM)	63.6%	94.3%	59.1%	78.6%	42.7%	192%	91.6%	81.8%	67.6%	98.3%	54.5%	137%	346%	42.5%	69.7%	68.5%	94.6%	96.6%	70.1%
N#CC[C@H](C1CCCC1)n1cc(-c2ncnc3[nH]ccc23)cn1 [ruxolitinib] + COc1cc2c(Oc3ccc4[nH]c(C)cc4c3F)ncnc2cc1OCCCN1CCCC1 [cediranib] (first compound 1 µM, partner dose 0.4 µM)	93.6%	144%	118%	132%	106%	76.9%	44.7%	101%	98%	99.1%	200%	48.7%	149%	141%	155%	133%	141%	44.7%	88.4%
Cc1ccc(Nc2nccc(N(C)c3ccc4c(C)n(C)nc4c3)n2)cc1S(N)(=O)=O [Pazopanib] + C[C@@H]1CCN(C(=O)CC#N)C[C@@H]1N(C)c1ncnc2[nH]ccc12 [CP690550] (first compound 0.4 µM, partner dose 1 µM)	112%	39.4%	77.8%	156%	57.4%	47.7%	87%	72.4%	65.9%	32.1%	206%	56.4%	34.8%	59.7%	80.8%	153%	716%	281%	137%
O=C(/C=C/c1cccnc1)NCCCCC1CCN(C(=O)c2ccccc2)CC1 + O=C(O)c1ccc(-c2c[nH]c3ncc(-c4ccccc4)cc23)cc1C1CCCC1 [GSK650394] (first compound 0.01 µM, partner dose 0.16 µM)	532%	297%	186%	2710%	1250%	254%	221%	179%	807%	396%	60.2%	140%	308%	226%	452%	135%	142%	134%	103%
O=C(Nc1cc(C(F)(F)F)cc(C(F)(F)F)c1)c1cc(Cl)ccc1O + COc1cc2c(Oc3ccc4[nH]c(C)cc4c3F)ncnc2cc1OCCCN1CCCC1 [cediranib] (first compound 0.016 µM, partner dose 0.4 µM)	224%	93.1%	87.2%	32.8%	194%	52.3%	220%	135%	74.4%	120%	148%	108%	57.8%	42%	117%	81.1%	45.6%	269%	73.4%
COc1cc([C@@H]2c3cc4c(cc3[C@@H](O[C@@H]3O[C@@H]5CO[C@@H](C)O[C@H]5[C@H](O)[C@H]3O)[C@H]3COC(=O)[C@H]23)OCO4)cc(OC)c1O [etoposide] + CN(C)S(=O)(=O)c1ccc2c(c1)/C(=C/c1cc3c([nH]1)CCCC3)C(=O)N2 [SU6656] (first compound 0.02 µM, partner dose 0.4 µM)	117%	36.8%	51.6%	111%	188%	88.2%	139%	52.5%	27.8%	92.9%	153%	94.4%	211%	62.7%	84%	139%	67.4%	98.3%	168%
O=C(Nc1cc(C(F)(F)F)cc(C(F)(F)F)c1)c1cc(Cl)ccc1O + Cc1ccc(NC(=O)c2cccc(N(C)C)c2)cc1NC(=O)c1ccc(O)cc1 [ZM336372] (first compound 0.016 µM, partner dose 2 µM)	80.6%	49.8%	129%	103%	76.1%	37.2%	139%	117%	73.9%	73.6%	111%	53.9%	182%	121%	73.2%	67.5%	33.1%	88.8%	149%
N#CC[C@H](C1CCCC1)n1cc(-c2ncnc3[nH]ccc23)cn1 [ruxolitinib] + COc1cc(Nc2ncc(F)c(Nc3ccc4c(n3)NC(=O)C(C)(C)O4)n2)cc(OC)c1OC [Tamatinib] (first compound 1 µM, partner dose 0.4 µM)	358%	101%	73.1%	51.7%	99.4%	68%	95.8%	130%	37%	114%	164%	51.2%	55.6%	62.7%	70.2%	212%	79%	199%	137%
COc1cc([C@@H]2c3cc4c(cc3[C@@H](O[C@@H]3O[C@@H]5CO[C@@H](C)O[C@H]5[C@H](O)[C@H]3O)[C@H]3COC(=O)[C@H]23)OCO4)cc(OC)c1O [etoposide] + CC1(C)NC(=O)N(c2ccc([N+](=O)[O-])c(C(F)(F)F)c2)C1=O [nilutamide] (first compound 0.02 µM, partner dose 1 µM)	294%	128%	85.6%	51.2%	32.1%	90.8%	98.8%	91.5%	34.2%	25.8%	86.9%	184%	170%	31.4%	129%	117%	241%	36%	48.6%
Cc1ccc(Nc2nccc(N(C)c3ccc4c(C)n(C)nc4c3)n2)cc1S(N)(=O)=O [Pazopanib] + CN(NC(=O)CC(=O)NN(C)C(=S)c1ccccc1)C(=S)c1ccccc1 [STA4783] (first compound 0.4 µM, partner dose 0.006 µM)	88.7%	91.6%	149%	256%	183%	93.6%	82.8%	167%	80.7%	27.7%	85.8%	108%	57.2%	30.5%	27.3%	71.8%	137%	41.1%	111%
CC[C@]1(O)C[C@H]2CN(CCc3c([nH]c4ccccc34)[C@@](C(=O)OC)(c3cc4c(cc3OC)N(C=O)[C@H]3[C@@](O)(C(=O)OC)[C@H](OC(C)=O)[C@]5(CC)C=CCN6CC[C@]43[C@@H]65)C2)C1 [vincristine] + CO[C@@H]1[C@H](N(C)C(=O)c2ccccc2)C[C@H]2O[C@]1(C)n1c3ccccc3c3c4c(c5c6ccccc6n2c5c31)C(=O)NC4 [Midostaurin] (first compound 0.0001 µM, partner dose 0.08 µM)	134%	12.6%	113%	101%	64.7%	91.5%	49.5%	85.2%	23.6%	29.7%	115%	53.4%	109%	145%	97.8%	151%	40.7%	158%	91.1%
COc1cc([C@@H]2c3cc4c(cc3[C@@H](O[C@@H]3O[C@@H]5CO[C@@H](C)O[C@H]5[C@H](O)[C@H]3O)[C@H]3COC(=O)[C@H]23)OCO4)cc(OC)c1O [etoposide] + O=C(Nc1cccc(Cl)c1)Nc1ncc(CCNc2ncnc3ccsc23)s1 [SNS314] (first compound 0.02 µM, partner dose 0.0008 µM)	59.3%	183%	104%	67.7%	197%	59.6%	98.2%	130%	74.2%	118%	58.6%	134%	103%	286%	251%	68.7%	45.2%	83.7%	75%
Cc1cn(-c2cc(NC(=O)c3ccc(C)c(Nc4nccc(-c5cccnc5)n4)c3)cc(C(F)(F)F)c2)cn1 [nilotinib] + O=C(O)c1ccc(-c2c[nH]c3ncc(-c4ccccc4)cc23)cc1C1CCCC1 [GSK650394] (first compound 0.2 µM, partner dose 0.16 µM)	103%	92.3%	59.5%	93.7%	88.3%	120%	87.9%	86.4%	154%	113%	99.8%	50.5%	55.1%	131%	77.2%	61.7%	67.9%	51.4%	241%

Two records picked at random from the list so far, as already listed:
Structure (SMILES)	cleaved PARP positive nuclei fraction (COLO792)	cleaved PARP positive nuclei fraction (COLO800)	cleaved PARP positive nuclei fraction (COLO829)	cleaved PARP positive nuclei fraction (G361)	cleaved PARP positive nuclei fraction (IPC-298)	cleaved PARP positive nuclei fraction (IST-MEL1)	cleaved PARP positive nuclei fraction (LB2518-MEL)	cleaved PARP positive nuclei fraction (LOXIMVI)	cleaved PARP positive nuclei fraction (MEL-HO)	cleaved PARP positive nuclei fraction (MZ2-MEL)	cleaved PARP positive nuclei fraction (MeWo)	cleaved PARP positive nuclei fraction (RPMI7951)	cleaved PARP positive nuclei fraction (RVH-421)	cleaved PARP positive nuclei fraction (SkMel28)	cleaved PARP positive nuclei fraction (SkMel2)	cleaved PARP positive nuclei fraction (SkMel30)	cleaved PARP positive nuclei fraction (SkMel5)	cleaved PARP positive nuclei fraction (UACC257)	cleaved PARP positive nuclei fraction (UACC62)
COc1cc([C@@H]2c3cc4c(cc3[C@@H](O[C@@H]3O[C@@H]5CO[C@@H](C)O[C@H]5[C@H](O)[C@H]3O)[C@H]3COC(=O)[C@H]23)OCO4)cc(OC)c1O [etoposide] + O=C(Nc1cccc(Cl)c1)Nc1ncc(CCNc2ncnc3ccsc23)s1 [SNS314] (first compound 0.02 µM, partner dose 0.0008 µM)	59.3%	183%	104%	67.7%	197%	59.6%	98.2%	130%	74.2%	118%	58.6%	134%	103%	286%	251%	68.7%	45.2%	83.7%	75%
Cc1cn(-c2cc(NC(=O)c3ccc(C)c(Nc4nccc(-c5cccnc5)n4)c3)cc(C(F)(F)F)c2)cn1 [nilotinib] + CC1(C)NC(=O)N(c2ccc([N+](=O)[O-])c(C(F)(F)F)c2)C1=O [nilutamide] (first compound 0.2 µM, partner dose 1 µM)	63.6%	94.3%	59.1%	78.6%	42.7%	192%	91.6%	81.8%	67.6%	98.3%	54.5%	137%	346%	42.5%	69.7%	68.5%	94.6%	96.6%	70.1%
